Measured values from the supplement of paper PMC5393889.
Some of the results follow.

Each molecule was assayed on Caenorhabditis elegans N2 (assay: aldicarb interaction hit call (worm growth perturbed in combination with 10 uM aldicarb in both replicates, no effect as single agent) (binary (1 = interacts)); higher = interacts with aldicarb (growth perturbed)). Settings: first compound 1.5 µM; aldicarb concentration 10 µM; 6 days; 20 °C.

| SMILES | aldicarb interaction hit call |
| --- | --- |
| CN(CC1CCN(CCc2ccc(Cl)cc2)CC1)C1CCSCC1 [wact-315] + CNC(=O)O/N=C/C(C)(C)SC [aldicarb] | inactive: 0 |
| O=C(c1ccc(Cl)c(Cl)c1)N1CCN(c2ccc([N+](=O)[O-])cc2)CC1 [wact-53] + CNC(=O)O/N=C/C(C)(C)SC [aldicarb] | inactive: 0 |
| CC(NC(=O)c1nc(-c2ccc(Cl)cc2)no1)c1ccccc1 (stereo unspecified) [wact-586] + CNC(=O)O/N=C/C(C)(C)SC [aldicarb] | inactive: 0 |
| CC(NCc1c[nH]nc1-c1cccc2ccccc12)c1ccc(F)cc1 (stereo unspecified) [wact-239] + CNC(=O)O/N=C/C(C)(C)SC [aldicarb] | inactive: 0 |
| Cc1cccc(C)c1OCc1cc(C(=O)N2CCC(c3ccncc3)CC2)no1 [dafadine-A] + CNC(=O)O/N=C/C(C)(C)SC [aldicarb] | inactive: 0 |
| C#CCSc1nsc(NC(=O)Nc2ccc(Cl)c(C(F)(F)F)c2)n1 [wact-343] + CNC(=O)O/N=C/C(C)(C)SC [aldicarb] | inactive: 0 |
| Cc1oc(-c2ccc3ccccc3c2)nc1CN(C)CC(C)C [wact-305] + CNC(=O)O/N=C/C(C)(C)SC [aldicarb] | inactive: 0 |
| CN(CC1CCN(CCc2ccc(Cl)cc2)CC1)C1CCC1 [wact-268] + CNC(=O)O/N=C/C(C)(C)SC [aldicarb] | inactive: 0 |
| CC(C)Oc1ccc2c(=O)c(Oc3ccccc3)coc2c1 [wact-487] + CNC(=O)O/N=C/C(C)(C)SC [aldicarb] | inactive: 0 |
| Fc1ccc(N2CCN(Cc3ccc(Br)s3)CC2)cc1 [wact-29] + CNC(=O)O/N=C/C(C)(C)SC [aldicarb] | inactive: 0 |
| C#CCOc1ccc(C(=O)Nc2ccccc2Cl)cc1 [wact-584] + CNC(=O)O/N=C/C(C)(C)SC [aldicarb] | inactive: 0 |

Shown with tabs: part of the list above.
SMILES	aldicarb interaction hit call
C#CCSc1nsc(NC(=O)Nc2ccc(Cl)c(C(F)(F)F)c2)n1 [wact-343] + CNC(=O)O/N=C/C(C)(C)SC [aldicarb]	inactive: 0
Cc1oc(-c2ccc3ccccc3c2)nc1CN(C)CC(C)C [wact-305] + CNC(=O)O/N=C/C(C)(C)SC [aldicarb]	inactive: 0
